From the supplement of paper PMC4604168 (melanoma cell lines)
The other results are listed elsewhere or left out. Many values rest on one well or one pass, so single values are uncertain.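 The apoptosis fraction was the count of cleaved-PARP antibody-stained nuclei relative to all DNA-stained nuclei, imaged in 1,536-well plates. Screening doses were set so most cells survived, and baseline and induced cleaved-PARP levels vary greatly across cell lines.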

These molecules were tested on SkMel2 (assay: cleaved PARP positive nuclei fraction relative to DMSO control; melanoma cells; higher = more apoptosis). Conditions: library dose: low library concentration; 72 h.

SMILES	cleaved PARP positive nuclei fraction [%]
CCCCCCCCCCCCCCCCCCOP(=O)([O-])OC1CC[N+](C)(C)CC1 [Perifosine] + C#Cc1cccc(Nc2ncnc3cc(OCCOC)c(OCCOC)cc23)c1 [erlotinib] (first compound 0.4 µM, partner dose 0.8 µM)	102
COc1cc([C@@H]2c3cc4c(cc3[C@@H](O[C@@H]3O[C@@H]5CO[C@@H](C)O[C@H]5[C@H](O)[C@H]3O)[C@H]3COC(=O)[C@H]23)OCO4)cc(OC)c1O [etoposide] + C[C@]1(O)C[C@@H](c2nc(-c3ccc4ccc(-c5ccccc5)nc4c3)c3c(N)nccn32)C1 [OSI906] (first compound 0.02 µM, partner dose 0.4 µM)	144
CCCCCCCCCCCCCCCCCCOP(=O)([O-])OC1CC[N+](C)(C)CC1 [Perifosine] + C[C@@H](N)c1ccc(C(=O)Nc2ccnc3[nH]ccc23)cc1 [RKI983] (first compound 0.4 µM, partner dose 0.4 µM)	196
CCCCCCCCCCCCCCCCCCOP(=O)([O-])OC1CC[N+](C)(C)CC1 [Perifosine] + CCCS(=O)(=O)Nc1ccc(F)c(C(=O)c2c[nH]c3ncc(Cl)cc23)c1F [PLX4720] (first compound 0.4 µM, partner dose 0.08 µM)	117
O=C(/C=C/c1cccnc1)NCCCCC1CCN(C(=O)c2ccccc2)CC1 + Cc1cc(Nc2cc(N3CCN(C)CC3)nc(/C=C/c3ccccc3)n2)n[nH]1 [ENMD2076] (first compound 0.01 µM, partner dose 0.04 µM)	2590
O=C(/C=C/c1cccnc1)NCCCCC1CCN(C(=O)c2ccccc2)CC1 + Clc1ccc(Nc2nnc(Cc3ccncc3)c3ccccc23)cc1 [vatalanib] (first compound 0.01 µM, partner dose 2 µM)	1580
Cc1cc(Nc2cc(N3CCN(C)CC3)nc(Sc3ccc(NC(=O)C4CC4)cc3)n2)n[nH]1 [Tozasertib] + CC1(C)CCC(c2ccc(Cl)cc2)=C(CN2CCN(c3ccc(C(=O)NS(=O)(=O)c4ccc(N[C@H](CCN5CCOCC5)CSc5ccccc5)c(S(=O)(=O)C(F)(F)F)c4)cc3)CC2)C1 [ABT263] (first compound 0.006 µM, partner dose 0.4 µM)	197
CCCCCCCCCCCCCCCCCCOP(=O)([O-])OC1CC[N+](C)(C)CC1 [Perifosine] + NC(=O)c1ccc(N(C(N)=O)c2c(F)cccc2F)nc1-c1ccc(F)cc1F [VX702] (first compound 0.4 µM, partner dose 0.4 µM)	84.9
CCCCCCCCCCCCCCCCCCOP(=O)([O-])OC1CC[N+](C)(C)CC1 [Perifosine] + CC(=O)c1c(C)c2cnc(Nc3ccc(N4CCNCC4)cn3)nc2n(C2CCCC2)c1=O [palbociclib] (first compound 0.4 µM, partner dose 0.04 µM)	27.3
Cc1ccc(Nc2nccc(N(C)c3ccc4c(C)n(C)nc4c3)n2)cc1S(N)(=O)=O [Pazopanib] + O=C(O)c1ccc2c(c1)nc(Nc1cccc(Cl)c1)c1ccncc12 [CX4945] (first compound 0.4 µM, partner dose 0.4 µM)	59.4
Cc1cn(-c2cc(NC(=O)c3ccc(C)c(Nc4nccc(-c5cccnc5)n4)c3)cc(C(F)(F)F)c2)cn1 [nilotinib] + C=C(c1ccc(C(=O)O)cc1)c1cc2c(cc1C)C(C)(C)CCC2(C)C [Bexarotene] (first compound 0.2 µM, partner dose 2 µM)	108
Cc1cc(Nc2cc(N3CCN(C)CC3)nc(Sc3ccc(NC(=O)C4CC4)cc3)n2)n[nH]1 [Tozasertib] + O=C(O)[C@@H]1[O][Sb](=[O])([O][Sb]2(=[O])[O][C@H]([C@H](O)CO)[C@H](O)[C@H](C(=O)O)[O]2)[O][C@H]([C@H](O)CO)[C@@H]1O [stibogluconate] (first compound 0.006 µM, partner dose 2 µM)	123
O=C(/C=C/c1cccnc1)NCCCCC1CCN(C(=O)c2ccccc2)CC1 + Nc1ccn([C@@H]2O[C@H](CO)[C@@H](O)C2(F)F)c(=O)n1 [gemcitabine] (first compound 0.01 µM, partner dose 0.0004 µM)	611
O=C(/C=C/c1cccnc1)NCCCCC1CCN(C(=O)c2ccccc2)CC1 + O=C(O)c1ccc2c(c1)nc(Nc1cccc(Cl)c1)c1ccncc12 [CX4945] (first compound 0.01 µM, partner dose 0.4 µM)	2350
O=C(/C=C/c1cccnc1)NCCCCC1CCN(C(=O)c2ccccc2)CC1 + Cc1ccc(Nc2nccc(N(C)c3ccc4c(C)n(C)nc4c3)n2)cc1S(N)(=O)=O [Pazopanib] (first compound 0.01 µM, partner dose 0.4 µM)	2600
Cc1cc(Nc2cc(N3CCN(C)CC3)nc(Sc3ccc(NC(=O)C4CC4)cc3)n2)n[nH]1 [Tozasertib] + CC(C)C[C@H](NC(=O)[C@H](Cc1ccccc1)NC(=O)c1cnccn1)B(O)O [Bortezomib] (first compound 0.006 µM, partner dose 0.001 µM)	59.2
Cc1ccc(Nc2nccc(N(C)c3ccc4c(C)n(C)nc4c3)n2)cc1S(N)(=O)=O [Pazopanib] + Cn1c(=O)n(-c2ccc(C(C)(C)C#N)cc2)c2c3cc(-c4cnc5ccccc5c4)ccc3ncc21 [NVP-BEZ235] (first compound 0.4 µM, partner dose 0.004 µM)	76.3
Cc1cc(Nc2cc(N3CCN(C)CC3)nc(Sc3ccc(NC(=O)C4CC4)cc3)n2)n[nH]1 [Tozasertib] + CS(=O)(=O)CCNCc1ccc(-c2ccc3ncnc(Nc4ccc(OCc5cccc(F)c5)c(Cl)c4)c3c2)o1 [lapatinib] (first compound 0.006 µM, partner dose 0.8 µM)	32.7
Cc1ccc(Nc2nccc(N(C)c3ccc4c(C)n(C)nc4c3)n2)cc1S(N)(=O)=O [Pazopanib] + Nc1nc(F)nc2c1ncn2[C@@H]1O[C@H](CO)[C@@H](O)[C@@H]1O [fludarabine] (first compound 0.4 µM, partner dose 0.2 µM)	217
N#CC[C@H](C1CCCC1)n1cc(-c2ncnc3[nH]ccc23)cn1 [ruxolitinib] + CC(=O)c1c(C)c2cnc(Nc3ccc(N4CCNCC4)cn3)nc2n(C2CCCC2)c1=O [palbociclib] (first compound 1 µM, partner dose 0.04 µM)	61.4
O=C(Nc1cc(C(F)(F)F)cc(C(F)(F)F)c1)c1cc(Cl)ccc1O + Nc1nc(F)nc2c1ncn2[C@@H]1O[C@H](CO)[C@@H](O)[C@@H]1O [fludarabine] (first compound 0.016 µM, partner dose 0.2 µM)	11100
O=C(Nc1cc(C(F)(F)F)cc(C(F)(F)F)c1)c1cc(Cl)ccc1O + O=C(/C=C/c1cccnc1)NCCCCC1CCN(C(=O)c2ccccc2)CC1 [FK866] (first compound 0.016 µM, partner dose 0.01 µM)	281

In a second layout: entries from further up

| SMILES | cleaved PARP positive nuclei fraction [%] |
| --- | --- |
| CCCCCCCCCCCCCCCCCCOP(=O)([O-])OC1CC[N+](C)(C)CC1 [Perifosine] + C[C@@H](N)c1ccc(C(=O)Nc2ccnc3[nH]ccc23)cc1 [RKI983] (first compound 0.4 µM, partner dose 0.4 µM) | 196 |
| CCCCCCCCCCCCCCCCCCOP(=O)([O-])OC1CC[N+](C)(C)CC1 [Perifosine] + CCCS(=O)(=O)Nc1ccc(F)c(C(=O)c2c[nH]c3ncc(Cl)cc23)c1F [PLX4720] (first compound 0.4 µM, partner dose 0.08 µM) | 117 |
